PubChem BioAssay AID493246 | Drosophila RNAi Screening Center | 2011
In all, the deposit lists about 21,000 reagents; below is a random part of those with a known target gene and a result. In the full data, 429 (2%) were called active. 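Values are raw and not normalised between plates; calls rest on per-plate z-scores that were not deposited.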 Reagents against one gene are numbered here. Not stated in the record: the amount of reagent, the time to read-out.

Purpose: 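Genes fly cells need to grow and stay alive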 (primary screen)
Cells: Drosophila Kc and S2R+ cells
Reagents: long dsRNA against Drosophila genes
Measured: 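Cell number per well after knock-down, printed as raw plate values; calls were based on per-plate z-scores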
Reading the numbers: Kc cell number and S2R+ cell number: higher = more cells remaining
Active means: 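Active when the per-plate z-score of cell number is 3 or more in the direction of fewer cells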

Depletion of CG10748 (GeneID 39469) came out at: Kc cell number, rep 1 = 1.44e6; Kc cell number, rep 2 = 1.37e6; S2R+ cell number, rep 1 = 1.30e6; S2R+ cell number, rep 2 = 1.38e6; inactive.
Silencing of CG1324 (GeneID 33060) gave: Kc cell number, rep 1 = 1.50e6; Kc cell number, rep 2 = 1.55e6; S2R+ cell number, rep 1 = 1.04e6; S2R+ cell number, rep 2 = 1.09e6; inactive.
Against Helz (GeneID 39613), the values are Kc cell number, rep 1 = 1.52e6; Kc cell number, rep 2 = 1.56e6; S2R+ cell number, rep 1 = 1.28e6; S2R+ cell number, rep 2 = 1.28e6; inactive.
BomT2 (GeneID 50208) scored Kc cell number, rep 1 = 1.56e6; Kc cell number, rep 2 = 1.65e6; S2R+ cell number, rep 1 = 1.23e6; S2R+ cell number, rep 2 = 1.38e6; inactive.
Knock-down of Creld (GeneID 33166) resulted in: Kc cell number, rep 1 = 1.60e6; Kc cell number, rep 2 = 1.59e6; S2R+ cell number, rep 1 = 1.06e6; S2R+ cell number, rep 2 = 1.23e6; inactive.
After knock-down of Cys (GeneID 41767) the results were Kc cell number, rep 1 = 1.31e6; Kc cell number, rep 2 = 1.41e6; S2R+ cell number, rep 1 = 1.06e6; S2R+ cell number, rep 2 = 1.18e6; inactive.
Depletion of CG12773 (GeneID 31082) gave: Kc cell number, rep 1 = 5.52e5; S2R+ cell number, rep 1 = 8.47e5; inactive.
Silencing of CG4287 (GeneID 41939) resulted in: Kc cell number, rep 1 = 1.63e6; Kc cell number, rep 2 = 1.75e6; S2R+ cell number, rep 1 = 1.17e6; S2R+ cell number, rep 2 = 1.30e6; inactive.
For Ykt6 (GeneID 31706), the values are Kc cell number, rep 1 = 5.92e5; S2R+ cell number, rep 1 = 9.33e5; inactive.
CG31848 (GeneID 318980) scored Kc cell number, rep 1 = 1.42e6; Kc cell number, rep 2 = 1.47e6; S2R+ cell number, rep 1 = 1.01e6; S2R+ cell number, rep 2 = 1.15e6; inactive.
For CG13428 (GeneID 37317), the values are Kc cell number, rep 1 = 1.78e6; Kc cell number, rep 2 = 1.87e6; S2R+ cell number, rep 1 = 1.35e6; S2R+ cell number, rep 2 = 1.61e6; inactive.
With knock-down of NaPi-III (GeneID 39255) #1 the results were Kc cell number, rep 1 = 1.25e6; Kc cell number, rep 2 = 1.39e6; S2R+ cell number, rep 1 = 1.28e6; S2R+ cell number, rep 2 = 1.09e6; inactive.
With knock-down of NaPi-III (GeneID 39255) #2, the record shows Kc cell number, rep 1 = 1.35e6; Kc cell number, rep 2 = 1.36e6; S2R+ cell number, rep 1 = 8.80e5; S2R+ cell number, rep 2 = 1.01e6; inactive.
After knock-down of CG33124 (GeneID 318891), the record shows Kc cell number, rep 1 = 1.78e6; Kc cell number, rep 2 = 1.78e6; S2R+ cell number, rep 1 = 1.10e6; S2R+ cell number, rep 2 = 1.16e6; inactive.
For CG32631 (GeneID 32311), the values are Kc cell number, rep 1 = 6.18e5; S2R+ cell number, rep 1 = 9.22e5; inactive.
CG10353 (GeneID 32148) scored Kc cell number, rep 1 = 1.71e6; Kc cell number, rep 2 = 1.85e6; S2R+ cell number, rep 1 = 1.13e6; S2R+ cell number, rep 2 = 1.26e6; inactive.
For aft (GeneID 37034), the entry reads Kc cell number, rep 1 = 1.29e6; Kc cell number, rep 2 = 1.34e6; S2R+ cell number, rep 1 = 1.14e6; S2R+ cell number, rep 2 = 1.19e6; inactive.
EDTP (GeneID 36959) showed Kc cell number, rep 1 = 1.62e6; Kc cell number, rep 2 = 1.61e6; S2R+ cell number, rep 1 = 1.21e6; S2R+ cell number, rep 2 = 1.41e6; inactive.
Knock-down of TwdlG (GeneID 40535) came out at: Kc cell number, rep 1 = 1.40e6; Kc cell number, rep 2 = 1.80e6; S2R+ cell number, rep 1 = 1.25e6; S2R+ cell number, rep 2 = 1.36e6; inactive.
Prosalpha5 (GeneID 36951) gave Kc cell number, rep 1 = 5.77e5; Kc cell number, rep 2 = 6.81e5; S2R+ cell number, rep 1 = 3.18e5; S2R+ cell number, rep 2 = 4.23e5; active.
Knock-down of CG13690 (GeneID 33213) resulted in: Kc cell number, rep 1 = 1.74e6; Kc cell number, rep 2 = 1.73e6; S2R+ cell number, rep 1 = 1.15e6; S2R+ cell number, rep 2 = 1.23e6; inactive.
